Source: the supplement of paper PMC12067093, “Discovery and optimisation of a covalent ligand for TRIM25 and its application to targeted protein ubiquitination” (Chemical Science, 2025)
The list shows a part of the results.

Protein sequences, listed by entry. Tags and fused reporters are not part of them. Lines headed by an entry give the natural chain unless they say otherwise; changes in a name come on top.
UniProt Q9NY12: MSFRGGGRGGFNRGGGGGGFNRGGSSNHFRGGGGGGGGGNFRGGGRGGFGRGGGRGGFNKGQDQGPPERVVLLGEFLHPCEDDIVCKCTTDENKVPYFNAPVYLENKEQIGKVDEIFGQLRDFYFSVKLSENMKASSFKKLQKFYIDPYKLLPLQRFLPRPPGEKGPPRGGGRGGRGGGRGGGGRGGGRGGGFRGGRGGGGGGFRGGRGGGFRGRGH
UniProt Q8IXK2: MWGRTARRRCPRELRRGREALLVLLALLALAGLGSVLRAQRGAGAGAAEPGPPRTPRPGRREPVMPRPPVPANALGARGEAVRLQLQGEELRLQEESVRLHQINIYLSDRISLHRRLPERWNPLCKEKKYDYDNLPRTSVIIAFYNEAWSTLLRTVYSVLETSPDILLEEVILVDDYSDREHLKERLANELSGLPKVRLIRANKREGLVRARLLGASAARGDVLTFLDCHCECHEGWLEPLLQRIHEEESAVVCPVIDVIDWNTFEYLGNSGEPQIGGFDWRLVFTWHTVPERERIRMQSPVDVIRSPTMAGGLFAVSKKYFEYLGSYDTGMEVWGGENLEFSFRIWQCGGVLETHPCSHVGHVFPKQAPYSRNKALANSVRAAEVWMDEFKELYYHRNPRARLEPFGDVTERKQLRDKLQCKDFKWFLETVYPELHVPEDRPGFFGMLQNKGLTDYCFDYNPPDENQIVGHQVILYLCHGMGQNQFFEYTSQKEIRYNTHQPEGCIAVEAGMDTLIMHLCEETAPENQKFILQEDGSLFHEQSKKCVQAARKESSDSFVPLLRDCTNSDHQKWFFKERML
UniProt P31150: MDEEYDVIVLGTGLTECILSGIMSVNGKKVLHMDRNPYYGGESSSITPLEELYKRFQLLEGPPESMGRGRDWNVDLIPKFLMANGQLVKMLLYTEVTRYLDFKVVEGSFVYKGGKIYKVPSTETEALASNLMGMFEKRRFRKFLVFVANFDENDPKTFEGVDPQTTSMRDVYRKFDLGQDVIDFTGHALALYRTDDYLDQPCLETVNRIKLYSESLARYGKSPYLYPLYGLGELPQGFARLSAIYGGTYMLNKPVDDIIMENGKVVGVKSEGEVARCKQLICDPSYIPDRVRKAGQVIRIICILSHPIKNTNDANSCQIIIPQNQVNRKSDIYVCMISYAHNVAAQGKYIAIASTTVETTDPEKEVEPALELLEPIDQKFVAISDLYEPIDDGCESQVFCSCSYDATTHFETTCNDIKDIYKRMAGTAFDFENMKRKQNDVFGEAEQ
UniProt Q9Y2X7: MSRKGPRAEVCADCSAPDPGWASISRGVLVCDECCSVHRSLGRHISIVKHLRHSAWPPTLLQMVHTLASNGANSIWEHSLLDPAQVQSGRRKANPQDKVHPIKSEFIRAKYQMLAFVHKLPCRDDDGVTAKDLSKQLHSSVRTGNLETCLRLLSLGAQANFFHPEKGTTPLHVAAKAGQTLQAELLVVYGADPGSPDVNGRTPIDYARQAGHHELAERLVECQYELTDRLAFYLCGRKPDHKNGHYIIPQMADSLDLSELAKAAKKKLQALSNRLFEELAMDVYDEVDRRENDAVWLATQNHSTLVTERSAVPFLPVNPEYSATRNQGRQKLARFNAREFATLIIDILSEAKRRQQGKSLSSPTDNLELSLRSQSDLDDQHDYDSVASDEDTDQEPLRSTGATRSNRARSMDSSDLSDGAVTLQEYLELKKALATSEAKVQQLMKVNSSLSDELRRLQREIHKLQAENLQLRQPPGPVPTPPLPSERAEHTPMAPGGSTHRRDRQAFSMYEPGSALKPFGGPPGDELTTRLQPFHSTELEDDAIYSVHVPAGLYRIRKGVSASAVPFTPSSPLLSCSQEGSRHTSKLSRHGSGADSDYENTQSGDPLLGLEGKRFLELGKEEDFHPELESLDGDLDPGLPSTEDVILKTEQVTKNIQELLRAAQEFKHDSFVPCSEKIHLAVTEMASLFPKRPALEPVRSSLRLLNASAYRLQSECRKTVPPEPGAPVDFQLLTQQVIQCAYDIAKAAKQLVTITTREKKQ
UniProt O43716: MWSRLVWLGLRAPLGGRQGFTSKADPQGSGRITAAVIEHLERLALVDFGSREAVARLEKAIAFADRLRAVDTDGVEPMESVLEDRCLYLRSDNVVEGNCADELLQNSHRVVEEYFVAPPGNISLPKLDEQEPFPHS
UniProt P48507: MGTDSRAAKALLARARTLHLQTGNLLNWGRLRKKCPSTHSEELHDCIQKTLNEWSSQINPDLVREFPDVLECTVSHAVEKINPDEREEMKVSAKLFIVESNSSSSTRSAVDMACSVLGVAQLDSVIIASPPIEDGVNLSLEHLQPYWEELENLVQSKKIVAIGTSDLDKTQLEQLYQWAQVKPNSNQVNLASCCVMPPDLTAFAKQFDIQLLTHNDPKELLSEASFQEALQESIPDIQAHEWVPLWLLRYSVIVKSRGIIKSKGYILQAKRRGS
UniProt Q14161: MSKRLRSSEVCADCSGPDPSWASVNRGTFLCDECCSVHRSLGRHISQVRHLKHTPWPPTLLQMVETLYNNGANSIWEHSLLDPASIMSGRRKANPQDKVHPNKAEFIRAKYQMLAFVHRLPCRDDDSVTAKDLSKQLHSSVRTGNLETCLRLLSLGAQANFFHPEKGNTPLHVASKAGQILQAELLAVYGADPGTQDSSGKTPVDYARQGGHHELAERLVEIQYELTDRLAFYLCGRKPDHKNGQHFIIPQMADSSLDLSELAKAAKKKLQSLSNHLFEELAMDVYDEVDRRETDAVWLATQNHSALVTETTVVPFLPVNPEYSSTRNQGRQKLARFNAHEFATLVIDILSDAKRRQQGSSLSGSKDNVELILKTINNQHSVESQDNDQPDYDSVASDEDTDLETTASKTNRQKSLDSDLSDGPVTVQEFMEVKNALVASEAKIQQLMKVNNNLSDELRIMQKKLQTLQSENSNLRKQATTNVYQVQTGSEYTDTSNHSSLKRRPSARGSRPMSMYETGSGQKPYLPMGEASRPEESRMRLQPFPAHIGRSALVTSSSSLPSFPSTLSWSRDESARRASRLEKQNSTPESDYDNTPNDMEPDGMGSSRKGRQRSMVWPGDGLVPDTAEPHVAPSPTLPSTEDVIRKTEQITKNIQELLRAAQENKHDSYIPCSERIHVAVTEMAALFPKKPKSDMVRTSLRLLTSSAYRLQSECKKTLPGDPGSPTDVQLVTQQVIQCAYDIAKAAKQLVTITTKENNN
UniProt Q9NWU2, whole entry, looked up: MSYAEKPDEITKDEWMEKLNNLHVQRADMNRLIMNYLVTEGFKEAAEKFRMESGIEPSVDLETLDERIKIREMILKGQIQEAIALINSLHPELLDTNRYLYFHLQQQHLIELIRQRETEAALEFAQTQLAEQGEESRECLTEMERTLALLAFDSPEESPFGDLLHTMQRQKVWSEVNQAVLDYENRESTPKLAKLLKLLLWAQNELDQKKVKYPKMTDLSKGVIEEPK
UniProt P22102: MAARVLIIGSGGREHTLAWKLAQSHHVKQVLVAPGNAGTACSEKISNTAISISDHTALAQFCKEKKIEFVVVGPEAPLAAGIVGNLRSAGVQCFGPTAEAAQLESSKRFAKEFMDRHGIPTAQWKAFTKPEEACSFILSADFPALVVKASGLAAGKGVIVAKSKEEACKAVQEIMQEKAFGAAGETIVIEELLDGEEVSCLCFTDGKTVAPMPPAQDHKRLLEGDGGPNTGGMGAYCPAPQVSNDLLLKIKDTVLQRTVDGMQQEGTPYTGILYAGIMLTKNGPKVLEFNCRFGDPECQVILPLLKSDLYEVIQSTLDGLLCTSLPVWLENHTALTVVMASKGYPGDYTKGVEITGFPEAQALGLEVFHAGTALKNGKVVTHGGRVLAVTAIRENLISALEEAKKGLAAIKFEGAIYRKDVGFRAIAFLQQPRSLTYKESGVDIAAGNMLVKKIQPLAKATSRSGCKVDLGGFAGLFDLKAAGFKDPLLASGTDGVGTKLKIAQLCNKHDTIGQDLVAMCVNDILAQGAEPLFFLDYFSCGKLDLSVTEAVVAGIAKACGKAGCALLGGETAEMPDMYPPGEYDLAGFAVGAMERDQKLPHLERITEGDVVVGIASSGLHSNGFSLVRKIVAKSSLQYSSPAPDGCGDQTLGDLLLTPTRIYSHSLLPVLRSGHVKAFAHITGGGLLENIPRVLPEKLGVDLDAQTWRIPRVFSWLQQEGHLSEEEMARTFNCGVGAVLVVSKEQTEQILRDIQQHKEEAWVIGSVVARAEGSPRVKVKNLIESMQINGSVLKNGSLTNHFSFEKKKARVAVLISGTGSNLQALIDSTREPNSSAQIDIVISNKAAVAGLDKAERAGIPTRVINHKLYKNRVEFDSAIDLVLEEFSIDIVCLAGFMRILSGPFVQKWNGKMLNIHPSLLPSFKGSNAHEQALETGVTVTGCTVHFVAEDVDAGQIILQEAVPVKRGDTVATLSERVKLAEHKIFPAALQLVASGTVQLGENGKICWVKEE
UniProt Q96PP9: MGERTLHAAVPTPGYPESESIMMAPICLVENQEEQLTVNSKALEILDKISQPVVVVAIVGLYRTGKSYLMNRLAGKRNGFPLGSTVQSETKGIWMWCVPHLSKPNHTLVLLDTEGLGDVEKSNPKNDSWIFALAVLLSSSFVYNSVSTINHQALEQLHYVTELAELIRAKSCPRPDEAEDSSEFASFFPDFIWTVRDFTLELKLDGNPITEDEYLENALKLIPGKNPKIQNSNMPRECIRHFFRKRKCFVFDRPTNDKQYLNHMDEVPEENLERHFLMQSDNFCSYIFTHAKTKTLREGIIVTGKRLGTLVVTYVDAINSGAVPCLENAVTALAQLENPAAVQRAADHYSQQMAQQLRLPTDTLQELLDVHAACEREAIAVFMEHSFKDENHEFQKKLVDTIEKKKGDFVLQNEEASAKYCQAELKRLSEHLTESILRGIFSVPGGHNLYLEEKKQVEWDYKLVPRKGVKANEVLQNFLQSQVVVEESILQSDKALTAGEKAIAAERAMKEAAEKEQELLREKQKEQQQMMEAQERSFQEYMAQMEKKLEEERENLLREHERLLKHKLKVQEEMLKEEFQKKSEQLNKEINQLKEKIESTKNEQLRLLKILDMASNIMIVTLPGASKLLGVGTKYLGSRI
UniProt Q06210: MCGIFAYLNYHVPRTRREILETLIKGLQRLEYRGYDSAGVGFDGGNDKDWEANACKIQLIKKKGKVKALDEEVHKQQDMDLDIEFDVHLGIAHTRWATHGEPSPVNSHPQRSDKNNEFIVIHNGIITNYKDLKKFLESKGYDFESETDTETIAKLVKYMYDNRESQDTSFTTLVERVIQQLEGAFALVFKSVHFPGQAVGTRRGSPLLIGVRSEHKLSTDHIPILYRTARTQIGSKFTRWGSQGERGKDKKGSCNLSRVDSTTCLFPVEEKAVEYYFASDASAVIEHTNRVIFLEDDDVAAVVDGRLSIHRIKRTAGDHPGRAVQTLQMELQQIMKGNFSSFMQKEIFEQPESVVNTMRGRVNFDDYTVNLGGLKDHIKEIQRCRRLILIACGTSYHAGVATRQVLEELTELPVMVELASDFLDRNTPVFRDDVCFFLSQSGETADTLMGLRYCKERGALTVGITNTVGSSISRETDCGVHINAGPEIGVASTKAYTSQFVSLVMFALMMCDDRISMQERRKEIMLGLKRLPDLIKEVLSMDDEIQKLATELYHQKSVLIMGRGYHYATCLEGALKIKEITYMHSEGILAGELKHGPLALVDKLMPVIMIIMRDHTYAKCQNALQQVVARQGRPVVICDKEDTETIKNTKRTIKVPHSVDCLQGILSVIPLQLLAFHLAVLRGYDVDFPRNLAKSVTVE
UniProt P16383: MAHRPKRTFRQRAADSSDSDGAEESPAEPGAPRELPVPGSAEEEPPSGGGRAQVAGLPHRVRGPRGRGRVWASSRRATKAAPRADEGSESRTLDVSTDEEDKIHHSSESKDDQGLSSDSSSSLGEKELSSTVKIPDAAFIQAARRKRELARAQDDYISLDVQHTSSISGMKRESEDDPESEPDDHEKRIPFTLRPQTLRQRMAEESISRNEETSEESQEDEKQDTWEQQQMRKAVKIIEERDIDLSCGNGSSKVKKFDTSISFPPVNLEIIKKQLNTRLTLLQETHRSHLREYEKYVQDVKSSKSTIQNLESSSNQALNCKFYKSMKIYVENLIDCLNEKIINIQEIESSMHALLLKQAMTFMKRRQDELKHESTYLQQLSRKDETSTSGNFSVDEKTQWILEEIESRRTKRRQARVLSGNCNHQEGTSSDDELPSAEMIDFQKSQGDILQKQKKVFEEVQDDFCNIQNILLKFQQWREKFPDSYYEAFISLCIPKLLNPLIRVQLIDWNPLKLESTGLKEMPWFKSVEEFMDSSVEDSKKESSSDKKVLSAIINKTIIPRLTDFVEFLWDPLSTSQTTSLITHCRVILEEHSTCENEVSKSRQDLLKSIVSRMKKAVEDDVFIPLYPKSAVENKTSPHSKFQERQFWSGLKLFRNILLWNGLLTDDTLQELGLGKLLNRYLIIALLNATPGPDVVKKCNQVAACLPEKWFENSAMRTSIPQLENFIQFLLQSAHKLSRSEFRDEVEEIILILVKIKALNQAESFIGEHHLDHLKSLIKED

Compound: Cc1cc(ccc1-c1ccccc1)C(=O)N1CCCN(CC1)C(=O)CCl [compound 10]
Test: probe-labelled cysteine peptide fold change vs DMSO (competition) (log2 fold change); higher = less target engagement (more negative = stronger competition)
Conditions: 10 µM; THP-1; incubation time: 4 h
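Note: competitive profiling in live THP-1 cells: cysteine peptides tagged with an iodoacetamide desthiobiotin (IA-DTB) probe, intensity after compound treatment relative to DMSO-treated cells.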

Target	probe-labelled cysteine peptide fold change
GAR1_Q9NY12_86_VVLLGEFLHPCEDDIVCK (UniProt Q9NY12)	0.118
GALNT12_Q8IXK2_125_WNPLCK (UniProt Q8IXK2)	-0.11
GALNT1_Q10472_523_LTLQHVNSNQCLDK (UniProt Q10472)	-0.174
GDI1_P31150_202_TDDYLDQPCLETVNR (UniProt P31150)	0.0586
GIT1_Q9Y2X7_11+14_AEVCADCSAPDPGWASISR (UniProt Q9Y2X7)	0.221
GDI2_P50395_335_SDIYVCMISFAHNVAAQGK (UniProt P50395)	-0.0231
GATC_O43716_99_SDNVVEGNCADELLQNSHR (UniProt O43716)	-0.533
GALNT1_Q10472_482_EIRTDDLCLDVSK (UniProt Q10472)	-0.0512
GCC2_Q8IWJ2_817+826_CLQEESVVQCEELK (UniProt Q8IWJ2)	-0.104
GATAD1_Q8WUU5_12_PLGLKPTCSVCK (UniProt Q8WUU5)	0.113
GCN1_Q92616_1482_EAADDCAK (UniProt Q92616)	0.000972
GATM_P50440_50_NSCAADDK (UniProt P50440)	-0.478
GIT1_Q9Y2X7_35_GVLVCDECCSVHR (UniProt Q9Y2X7)	0.142
GCN1_Q92616_1595_CLQTLLDTK (UniProt Q92616)	-0.109
GALNT2_Q10471_539_HVGSNLCLDSR (UniProt Q10471)	0.0506
GCLM_P48507_35_CPSTHSEELHDCIQK (UniProt P48507)	0.162
GCAT_O75600_219_LVATDGAFSMDGDIAPLQEICCLASR (UniProt O75600)	0.269
GALM_Q96C23_38_VDIISWGCTITALEVK (UniProt Q96C23)	-0.00191
GAPDH_P04406_156_IISNASCTTNCLAPLAK (UniProt P04406)	0.00471
GCLM_P48507_72_EFPDVLECTVSHAVEK (UniProt P48507)	0.0454

Target	probe-labelled cysteine peptide fold change
GHDC_Q8N2G8_523_HLAQCLQER (UniProt Q8N2G8)	-0.142
GAPDH_P04406_247_VPTANVSVVDLTCRLEK (UniProt P04406)	-0.552
GDE1_Q9NZC3_327_SYYESHLGSSYITDSMVEDCEPHF (UniProt Q9NZC3)	-0.379
GBF1_Q92538_1414_DAAHITPDNFELCVK (UniProt Q92538)	0.219
GBA_P04062_381_LFPNTMLFASEACVGSK (UniProt P04062)	0.215
GAN_Q9H2C0_415_KIGCYAAMK (UniProt Q9H2C0)	-0.0112
GBA_P04062_165_VPMASCDFSIR (UniProt P04062)	0.129
GIT2_Q14161_149_TGNLETCLR (UniProt Q14161)	0.0754
GID8_Q9NWU2_139_ECLTEMER (UniProt Q9NWU2)	-0.0332
GART_P22102_298_FGDPECQVILPLLK (UniProt P22102)	0.272
GBP4_Q96PP9_374_LPTDTLQELLDVHAACER (UniProt Q96PP9)	0.0802
GFPT1_Q06210_392_LILIACGTSYHAGVATR (UniProt Q06210)	0.0456
GCN1_Q92616_147_LVEVQCLLLLEVLGGSHK (UniProt Q92616)	0.136
GAPDH_P04406_247_LTGMAFRVPTANVSVVDLTCR (UniProt P04406)	-0.101
GIT1_Q9Y2X7_576_KGVSASAVPFTPSSPLLSCSQEGSR (UniProt Q9Y2X7)	-0.316
GCFC2_P16383_336_IYVENLIDCLNEK (UniProt P16383)	-0.00417
GHDC_Q8N2G8_423_LLDHGCVESSILDSSAGSAPHYEVFVALR (UniProt Q8N2G8)	-0.0559
GATM_P50440_407_NANSLGGGFHCWTCDVR (UniProt P50440)	0.183
GAPVD1_Q14C86_71_LIITSAEASPAECCQHAK (UniProt Q14C86)	-0.0179

Same assay, conditions: 50 µM; THP-1; incubation time: 4 h

Target	probe-labelled cysteine peptide fold change
GAR1_Q9NY12_86_VVLLGEFLHPCEDDIVCK (UniProt Q9NY12)	0.342
GALNT12_Q8IXK2_125_WNPLCK (UniProt Q8IXK2)	-0.0301
GALNT1_Q10472_523_LTLQHVNSNQCLDK (UniProt Q10472)	0.0343
GDI1_P31150_202_TDDYLDQPCLETVNR (UniProt P31150)	0.0584
GIT1_Q9Y2X7_11+14_AEVCADCSAPDPGWASISR (UniProt Q9Y2X7)	0.491
GDI2_P50395_335_SDIYVCMISFAHNVAAQGK (UniProt P50395)	0.3
GATC_O43716_99_SDNVVEGNCADELLQNSHR (UniProt O43716)	-0.0176
GALNT1_Q10472_482_EIRTDDLCLDVSK (UniProt Q10472)	-0.0895
GCC2_Q8IWJ2_817+826_CLQEESVVQCEELK (UniProt Q8IWJ2)	-0.221
GATAD1_Q8WUU5_12_PLGLKPTCSVCK (UniProt Q8WUU5)	-0.0989
GCN1_Q92616_1482_EAADDCAK (UniProt Q92616)	-0.257
GATM_P50440_50_NSCAADDK (UniProt P50440)	-1.27
GIT1_Q9Y2X7_35_GVLVCDECCSVHR (UniProt Q9Y2X7)	0.193
GCN1_Q92616_1595_CLQTLLDTK (UniProt Q92616)	-0.163
GALNT2_Q10471_539_HVGSNLCLDSR (UniProt Q10471)	0.137
GCLM_P48507_35_CPSTHSEELHDCIQK (UniProt P48507)	-0.576
GCAT_O75600_219_LVATDGAFSMDGDIAPLQEICCLASR (UniProt O75600)	-0.248
GALM_Q96C23_38_VDIISWGCTITALEVK (UniProt Q96C23)	0.0364
GAPDH_P04406_156_IISNASCTTNCLAPLAK (UniProt P04406)	-0.496
GCLM_P48507_72_EFPDVLECTVSHAVEK (UniProt P48507)	-0.116

Target	probe-labelled cysteine peptide fold change
GHDC_Q8N2G8_523_HLAQCLQER (UniProt Q8N2G8)	0.0752
GAPDH_P04406_247_VPTANVSVVDLTCRLEK (UniProt P04406)	-0.788
GDE1_Q9NZC3_327_SYYESHLGSSYITDSMVEDCEPHF (UniProt Q9NZC3)	0.107
GBF1_Q92538_1414_DAAHITPDNFELCVK (UniProt Q92538)	0.568
GBA_P04062_381_LFPNTMLFASEACVGSK (UniProt P04062)	-0.0714
GAN_Q9H2C0_415_KIGCYAAMK (UniProt Q9H2C0)	-0.2
GBA_P04062_165_VPMASCDFSIR (UniProt P04062)	-0.173
GIT2_Q14161_149_TGNLETCLR (UniProt Q14161)	0.117
GID8_Q9NWU2_139_ECLTEMER (UniProt Q9NWU2)	0.281
GART_P22102_298_FGDPECQVILPLLK (UniProt P22102)	-0.00458
GBP4_Q96PP9_374_LPTDTLQELLDVHAACER (UniProt Q96PP9)	0.00478
GFPT1_Q06210_392_LILIACGTSYHAGVATR (UniProt Q06210)	0.175
GCN1_Q92616_147_LVEVQCLLLLEVLGGSHK (UniProt Q92616)	0.205
GAPDH_P04406_247_LTGMAFRVPTANVSVVDLTCR (UniProt P04406)	-0.518
GIT1_Q9Y2X7_576_KGVSASAVPFTPSSPLLSCSQEGSR (UniProt Q9Y2X7)	-0.788
GCFC2_P16383_336_IYVENLIDCLNEK (UniProt P16383)	0.135
GHDC_Q8N2G8_423_LLDHGCVESSILDSSAGSAPHYEVFVALR (UniProt Q8N2G8)	-0.211
GATM_P50440_407_NANSLGGGFHCWTCDVR (UniProt P50440)	0.0175
GAPVD1_Q14C86_71_LIITSAEASPAECCQHAK (UniProt Q14C86)	-0.441
